Reference: publication PMC9659186
These are yes or no findings as the source states them, for the method shown. Binding seen in cells or lysates may run through a third protein. A result given as binding can be weak or reduced; the word gives no strength.

B1: AtWRKY22-HF (protein, UniProt O04609 1-298)
chain: MADDWDLHAVVRGCSAVSSSATTTVYSPGVSSHTNPIFTVGRQSNAVSFGEIRDLYTPFTQESVVSSFSCINYPEEPRKPQNQKRPLSLSASSGSVTSKPSGSNTSRSKRRKIQHKKVCHVAAEALNSDVWAWRKYGQKPIKGSPYPRGYYRCSTSKGCLARKQVERNRSDPKMFIVTYTAEHNHPAPTHRNSLAGSTRQKPSDQQTSKSPTTTIATYSSSPVTSADEFVLPVEDHLAVGDLDGEEDLLSLSDTVVSDDFFDGLEEFAAGDSFSGNSAPASFDLSWVVNSAATTTGGI
B2: AtWRKY40-HF (protein, UniProt Q9SAH7 1-302)
chain: MDQYSSSLVDTSLDLTIGVTRMRVEEDPPTSALVEELNRVSAENKKLSEMLTLMCDNYNVLRKQLMEYVNKSNITERDQISPPKKRKSPAREDAFSCAVIGGVSESSSTDQDEYLCKKQREETVVKEKVSRVYYKTEASDTTLVVKDGYQWRKYGQKVTRDNPSPRAYFKCACAPSCSVKKKVQRSVEDQSVLVATYEGEHNHPMPSQIDSNNGLNRHISHGGSASTPVAANRRSSLTVPVTTVDMIESKKVTSPTSRIDFPQVQKLLVEQMASSLTKDPNFTAALAAAVTGKLYQQNHTEK
B3: AtWRKY38-HF (protein, UniProt Q8GWF1 1-289)
chain: MEMNSPHEKAVQAIRYGHSCAMRLKRRLNHPMADGGPLSSYDLAKSIVESFSNAISILSAKPETEDDQFSDLSSRDSSPPPQGSPSKKRKIDSTNSSENWRDDSPDPIYYDGYLWRKYGQKSIKKSNHQRSYYRCSYNKDHNCEARKHEQKIKDNPPVYRTTYFGHHTCKTEHNLDAIFIAGQDPLDDFKSTQMIRFGKDQDQEKESRSNGFSLSVKHEEDIIKEQAIDQYREITSNDQDCQDVIEEYLSSPSGSYPPSSSSGSESADFNSDLLFDNPDSWDRYDQFYF

Each binder was assayed against GFP-StATG8-2.1 (potato (Solanum tuberosum)) (assay: co-IP; GFP-StATG8-2.1 co-expressed with AtWRKY-HF in N. benthamiana leaves; total protein extracts in GTEN buffer (150 mM Tris-HCl pH 7.5, 150 mM NaCl, 10% glycerol, 10 mM EDTA, 10 mM DTT); precipitated with GFP Trap A beads, two hours in the cool room; blots with anti-GFP and anti-FLAG).

Row | Binder | binding
1 | B1 | binds
2 | B2 | binds
3 | B3 | no binding
